Experimental findings from patent US6673354B2, “Compositions and methods for treating papillomavirus-infected cells” (priority 1998, dated 2004) are described below.

Protein sequences, listed by entry. Tags and fused reporters are not part of them. Residues count along the entry.
UniProt P03114, residues 424-649: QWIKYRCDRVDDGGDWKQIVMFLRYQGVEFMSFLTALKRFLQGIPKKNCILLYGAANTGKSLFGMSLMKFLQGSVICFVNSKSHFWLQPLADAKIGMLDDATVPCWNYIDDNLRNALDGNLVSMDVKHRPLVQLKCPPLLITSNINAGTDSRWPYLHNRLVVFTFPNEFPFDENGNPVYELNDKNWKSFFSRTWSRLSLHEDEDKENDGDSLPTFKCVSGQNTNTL

Results are given in words; binding and its absence hold for the method and conditions named. For some assays here: In cells and extracts the contact can be indirect. Some entries that bind do so weakly or less than the wild type.

The target in assay [1] is EE-EIC (epitope tagged carboxy terminal domain of HPV16 E1) (human papillomavirus type 16) (UniProt P03114). Kind of assay: in vitro E1-E2 competition binding assay with EE-EIC, 10-40 µM peptide, FIG. 14.
Assay [2] has the same target. Kind of assay: inhibition of co-immunoprecipitation of E2 with the tagged E1 carboxyl terminal domain.

WKHMRLECAIYYKAR (also called 15-mer; wild-type peptide) [E2N-WP15 (peptide of HPV16 E2 residues 33-47)]: the binding entry in assay [1] and in assay [2] was “binds” each time.
